From patent publication US20100167311A1, “Oxidoreductases and Processes Utilising Such Enzymes” (priority 2006, published 2010)

Assay: Potentiometric titration of NiR variants, midpoint potential of the type-1 site
Type: physicochemical, A. faecalis S-6
Conditions: versus NHE, without ligands, 298 K, 100 mM potassium phosphate pH 7.0; listed as wt NiR

B1: wild-type Cu-containing nitrite reductase from Alcaligenes faecalis S-6 (protein)
chain: QGAVRKATAAEIAALPRQKVELVDPPFVHAHSQVAEGGPKVVEFTMVIEEKKIVIDDAGTEVHAMAFNGTVPGPLMVVHQDDYLELTLINPETNTLMHNIDFHAATGALGGGGLTEINPGEKTILRFKATKPGVFVYHCAPPGMVPWHVVSGMNGAIMVLPREGLHDGKGKALTYDKIYYVGEQDFYVPRDENGKYKKYEAPGDAYEDTVKVMRTLTPTHVVFNGAVGALTGDKAMTAAVGEKVLIVHSQANRDTRPHLIGGHGDYVWATGKFNTPPDVDQETWFIPGGAAGAAFYTFQQPGIYAYVNHNLIEAFELGAAAHFKVTGEWNDDLMTSVLAPSGT
  midpoint potential of the type-1 site: 213+5 mV and 213 mV

Values joined by “and” are separate entries in the source; they are usually repeats but may differ in a detail not shown here. Identical values can stand only once.
